{"source": "the supplement of paper PMC6119338", "note": "± gives the standard deviation of the averaged measurements. This is one part of the list. Single values are uncertain, as repeats are few or missing.", "data": [{"test_system": "Plasmodium berghei sporozoites", "assay": "residual sporozoite gliding motility relative to DMSO control; higher = less inhibition of motility", "details": "10 µM; incubation time 30 min", "method": "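GFP-expressing Plasmodium berghei salivary gland sporozoites (about 2000 per well, 384-well plate, RPMI with 3% BSA) were incubated 30 min with MMV Malaria Box compounds at 10 uM, then imaged at 1 Hz for 30 s. Sporozoites moving more than one parasite length were counted manually and expressed as percentage residual motility relative to DMSO controls. The pilot screen was a single assay per compound; apparent hits were repeated up to two more times. 'No observable inhibition' in the pilot screen is encoded as inactive (>50% residual, active false), a coarse placeholder rather than a measured value.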", "units": {"residual sporozoite gliding motility": "%"}, "values": [{"smiles": "CCOc1cc(Br)c(C(C)NC(=O)c2cccc(OC)c2)cc1OCC", "note": "(stereo not given)", "residual sporozoite gliding motility": "> 50"}, {"smiles": "Cc1ccc(F)cc1NC(=O)c1cc(Cl)ccc1Nc1ccccc1", "residual sporozoite gliding motility": "> 50"}, {"smiles": "CCCc1c(CC)c(=N)c2ccccc2n1C", "residual sporozoite gliding motility": "> 50"}, {"smiles": "CCc1ccc(Nc2cc(C)nc3nc(C)nn23)cc1", "residual sporozoite gliding motility": "> 50"}, {"smiles": "CC(NCc1ccccc1)c1cc(Cl)ccc1O", "note": "(stereo not given)", "residual sporozoite gliding motility": "> 50"}, {"smiles": "COc1ccc(-c2cc(=O)oc3c4c(ccc23)OCN(Cc2ccc(F)cc2)C4)cc1", "residual sporozoite gliding motility": "> 50"}, {"smiles": "COC(=O)c1ccc(C2C3=C(O)CC(c4ccc(F)cc4)CC3=Nc3ccccc3N2C(=O)c2ccccc2)cc1", "note": "(stereo not given)", "residual sporozoite gliding motility": "> 50"}, {"smiles": "O=C(Nc1ccc(Cl)c(Cl)c1)Nc1ccc(Cl)c(Cl)c1", "residual sporozoite gliding motility": "19.7 ± 1.5"}, {"smiles": "O=C(NC1CCCC1)c1ccc(N2CCC(NCc3cccc(C(F)(F)F)c3)CC2)cc1", "residual sporozoite gliding motility": "> 50"}, {"smiles": "O=C(Nc1cccc(-c2nc3ccccc3[nH]2)c1)c1cccc(NC(=O)c2ccco2)c1", "residual sporozoite gliding motility": "> 50"}, {"smiles": "CCCCc1c(CCC)c(=N)c2ccccc2n1C", "residual sporozoite gliding motility": "> 50"}, {"smiles": "Cc1cccc(Nc2nc(N)c3ccccc3n2)c1", "residual sporozoite gliding motility": "> 50"}, {"smiles": "CCN1CCN(Cc2ccc(NC(=O)c3cc4ccc5cccnc5c4[nH]3)cc2)CC1", "residual sporozoite gliding motility": "> 50"}, {"smiles": "Cc1cc(Nc2ccc(C)c(Cl)c2)n2nc(C(F)(F)F)nc2n1", "residual sporozoite gliding motility": "> 50"}, {"smiles": "Cc1ccc(C)c(Cn2c(N3CCC(C(=O)NCc4cccs4)CC3)nc3ccccc32)c1", "residual sporozoite gliding motility": "> 50"}, {"smiles": "CCOc1ccc(-n2cc(-c3ccccc3)c3c(SCc4cc(C)ccc4C)ncnc32)cc1", "residual sporozoite gliding motility": "> 50"}, {"smiles": "O=C(NC1CCN(Cc2ccccc2)CC1)c1cc2nc(-c3ccc(Cl)s3)cc(C(F)(F)F)n2n1", "residual sporozoite gliding motility": "> 50"}, {"smiles": "COc1ccc(CCn2c(=N)c(C(=O)NCc3cccnc3)cc3c(=O)n4cccc(C)c4nc32)cc1", "residual sporozoite gliding motility": "> 50"}, {"smiles": "COc1cc2c(cc1OC)C1=NNC(=O)C1=NC(C)(C)C2", "residual sporozoite gliding motility": "> 50"}, {"smiles": "O=C(NC1CCN(Cc2ccccc2)CC1)c1cc(-c2cccnc2)nc2ccc(Cl)cc12", "residual sporozoite gliding motility": "> 50"}, {"smiles": "O=C(CCl)NCCOc1ccc(Cl)cc1Cl", "residual sporozoite gliding motility": "> 50"}, {"smiles": "O=C(Nc1ccc(CN2CCOCC2)cc1)c1ccc(-c2cc(Cl)ccc2Cl)o1", "residual sporozoite gliding motility": "> 50"}, {"smiles": "CCCCCn1c(=N)n(CC(O)COc2cccc(C)c2)c2ccccc21", "note": "(stereo not given)", "residual sporozoite gliding motility": "> 50"}, {"smiles": "O=c1nc(C=Cc2ccc(Cl)cc2)oc2ccccc12", "residual sporozoite gliding motility": "> 50"}, {"smiles": "CCCCc1ccc(NS(=O)(=O)c2cc3c4c(c2)CCN4C(=O)CC3)cc1", "residual sporozoite gliding motility": "> 50"}, {"smiles": "CCN(CC)CCn1c(=N)n(CC(O)c2ccc(Cl)c(Cl)c2)c2ccccc21", "note": "(stereo not given)", "residual sporozoite gliding motility": "> 50"}, {"smiles": "CN1CCN(c2ncnc3c2[nH]c2ccc(Cl)cc23)CC1", "residual sporozoite gliding motility": "> 50"}, {"smiles": "COc1cccc(C(=O)Nc2ccc(-c3nc4ccccc4[nH]3)cc2)c1", "residual sporozoite gliding motility": "> 50"}, {"smiles": "O=C(Nc1ccc(N2CCN(Cc3ccccc3)CC2)cc1)c1cccs1", "residual sporozoite gliding motility": "> 50"}, {"smiles": "Oc1ccc(-c2nc(-c3ccc4oc5ccc(-c6[nH]c(-c7ccc(O)cc7)nc6-c6ccccc6)cc5c4c3)c(-c3ccccc3)[nH]2)cc1", "residual sporozoite gliding motility": "> 50"}, {"smiles": "COc1ccc(C(C)=O)cc1N1C(=O)C2C(C1=O)C1(c3ccccc3)C(=O)C2(c2ccccc2)C(c2ccc(C)cc2)=C1c1ccc(C)cc1", "note": "(stereo not given)", "residual sporozoite gliding motility": "> 50"}, {"smiles": "CCOC(=O)c1cnc2ccc(Cl)cc2c1NCCCN(C)C", "residual sporozoite gliding motility": "> 50"}, {"smiles": "c1ccc(-c2ccc(-c3nc4ccccc4[nH]3)cc2)cc1", "residual sporozoite gliding motility": "> 50"}, {"smiles": "CC1CCN(Cc2ccc(NC(=O)c3cc4ccc5cccnc5c4[nH]3)cc2)CC1", "residual sporozoite gliding motility": "> 50"}, {"smiles": "CCc1c(C)c(=N)c2ccccc2n1C", "residual sporozoite gliding motility": "> 50"}, {"smiles": "COc1ccc(/C=C2/SC(=Nc3ccccc3)NC2=O)cc1", "residual sporozoite gliding motility": "> 50"}, {"smiles": "CCCCCCC(O)(c1ccc(F)cc1)C(CN1CCOCC1)c1ccccc1", "note": "(stereo not given)", "residual sporozoite gliding motility": "> 50"}, {"smiles": "Cc1ccc(Nc2nc(N)c3ccccc3n2)cc1Cl", "residual sporozoite gliding motility": "> 50"}, {"smiles": "Cc1cc(N2CCCC2)nc(Nc2ccc(NC(=O)CCc3ccccc3)cc2)n1", "residual sporozoite gliding motility": "> 50"}, {"smiles": "CCOc1ccccc1CNC(=O)C1c2ccccc2C(=O)N(CC(C)C)C1c1cccs1", "note": "(stereo not given)", "residual sporozoite gliding motility": "> 50"}]}]}
